Here are results for one molecule from ChEMBL document CHEMBL1141145, “A chiral benzoquinolizine-2-carboxylic acid arginine salt active against vancomycin-resistant Staphylococcus aureus” (J Med Chem, 2005).

In general, logD refers to the decadic logarithm of the distribution of all forms, ionised or not, between an organic phase and buffer at a given pH. Low readings indicate a more hydrophilic compound, high ones a more lipophilic compound.

For series [1] the following is noted: octanol/water, pH 2.
The nature of series [2]: physchem. To be noted: octanol/water, pH 7.4.

Structures are written as SMILES.

Consider `CCn1cc(C(=O)O)c(=O)c2cc(F)c(N3CCN(C)CC3)cc21` [PEFLOXACIN], for which the logD in series [1] is -1.58; in series [2] it was 0.37.
